# Assay results taken from PubChem BioAssay AID2685 (National Center for Advancing Translational Sciences (NCATS), 2010).
# Some of the results follow. These are further read-outs of the screen, such as a control signal, another cell line or another target. No call is given for them. The list favours compounds with an active or inconclusive main result. Words in brackets tell the shape of the fitted curve; partial curves, single points and poor fits give uncertain potencies.
# Test: qHTS Assay for Lipid Storage Modulators in Drosophila S3 Cells;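 as to cell number change: cells counted by Cell Tracker Red CMTPX staining in the red channel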
# Details: BODIPY lipid droplet fluorescence, 18-24 h; for cell number change: measured here: cell count max response, cells fed with added oleic acid
# Summary of the method: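 Laser-scanning cytometry quantifies lipid droplet accumulation (500–530 nm total intensity; droplet/cell object ratio) in oleic acid-fed (400 uM added) Drosophila S3 cells treated with a concentration series. 20 uM Triacsin C defined 100% inhibition.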
# [1] = measured here: cell number channel AC50, cells fed with added oleic acid
# [2] = measured here: lipid fluorescence (Fed channel) AC50, cells fed with added oleic acid
SMILES,cell number change,AC50 [1],AC50 [2]
Cc1[nH]c2ccc(OC(F)(F)F)cc2c1CCNCc1ccc(Cl)cc1,-102%,"18.4 µM [falling, partial curve]","20.6 µM [falling, partial curve]"
Nc1ccc(N2CCN(Cc3ccccc3Cl)CC2)c(Cl)c1,,,"6.51 µM [rising, single point]"
Cc1nn(Cc2ccccc2)c(C)c1C(=O)OCC(=O)NC1CCS(=O)(=O)C1 (stereo not drawn),-12.4%,,
Nc1ccnn1C1CCNCC1,-120%,"29.1 µM [falling, single point]","29.1 µM [falling, single point]"
O=c1[nH]c(=O)n(Cc2ccccc2)c(O)c1C=NCCCn1ccnc1,-1.63%,"4.61 µM [rising, single point]",
Clc1ccc2sc(C3CCNCC3)nc2c1,23.6%,,"29.1 µM [rising, single point]"
COc1cc(/C=C/C(=O)c2c(O)n(CCc3ccccc3)c(=O)[nH]c2=O)ccc1O,-16.4%,,
COc1ccc(Cn2c(O)c(C=Nc3c(C)n(C)n(-c4ccccc4)c3=O)c(=O)[nH]c2=O)cc1,11.5%,,"32.6 µM [falling, single point]"
CN(C)CCN=Cc1c(O)n(-c2cccc(C(F)(F)F)c2)c(=O)[nH]c1=O,15.4%,,
Brc1ccccc1,-35.9%,"0.0731 µM [falling, full curve]","0.461 µM [falling, full curve]"
Cc1noc(C)c1C(=O)N1CCC2(CC1)OCCO2,-11.5%,,"0.651 µM [falling, full curve, poor fit]"
O=c1cccc2n1CC1CC2CN(S(=O)(=O)c2ccccc2)C1 (stereo not drawn),,,"0.651 µM [falling, single point]"
Nc1c(C(=O)OCC2CCCO2)c2nc3ccccc3nc2n1Cc1cccs1 (stereo not drawn),-30.8%,"10.3 µM [falling, partial curve]","14.6 µM [falling, partial curve, poor fit]"
CNC(=O)Oc1cccc(-c2cn3cc(OC(=O)NC)ccc3n2)c1,1.93%,,"18.4 µM [rising, single point]"
CCC(C)N1C(=O)/C(=C\c2cnc(N(C)C)nc2)C(=O)NC1=S (stereo not drawn),-45.4%,"0.224 µM [falling, full curve, poor fit]","0.112 µM [falling, full curve, poor fit]"
CCCCn1c(C)c(C(=O)OCC)c2c(CN3CCOCC3)c(O)ccc21,,,"0.411 µM [rising, partial curve, poor fit]"
CCN(CC)c1ccc(N=Cc2c(O)n(Cc3ccco3)c(=O)[nH]c2=O)cc1,-7.65%,,"6.51 µM [falling, single point]"
CC(C)(C)C(=O)Cn1c(NCCCl)nc2ccccc21,-8.66%,"0.092 µM [falling, full curve, poor fit]","0.146 µM [falling, full curve, poor fit]"
CCCCn1c(=O)c(C(=O)Nc2cnccn2)c(O)c2ccccc21,-8.24%,,"6.51 µM [rising, partial curve, poor fit]"
CCN(CC)C(=O)c1ccc(N2C(=O)C3CC=C(Cl)CC3C2=O)cc1 (stereo not drawn),-2.56%,,
COc1ccc(CN2CCCC(C(=O)c3ccc(Cl)cc3)C2)c(OC)c1 (stereo not drawn),,"0.326 µM [rising, full curve, poor fit]","29.1 µM [falling, single point]"
CC(C)C12CN3CCN(CC(C3)C1O)C2 (stereo not drawn),-32.1%,"36.6 µM [falling, partial curve, poor fit]","0.092 µM [falling, full curve]"
O=C(COC(=O)Cc1ccccc1)NNC(=O)c1ccc([N+](=O)[O-])cc1,3.11%,,"6.51 µM [rising, single point]"
CC(C)c1ccccc1NC1=NCCCS1,11.3%,,"0.206 µM [rising, single point]"
c1ccc(C2=NP(N3CCOCC3)(N3CCOCC3)=NC(N3CCOCC3)=N2)cc1,-13.1%,,"2.59 µM [rising, full curve, poor fit]"
CN1C(=O)/C(=C/c2cccn2-c2ccc3ccccc3c2)C(=O)NC1=S,,,"4.11 µM [falling, partial curve]"
Cn1c(=O)cc(OCC(=O)N2CCN(Cc3ccc4c(c3)OCO4)CC2)c2ccccc21,-11.7%,,"18.4 µM [falling, single point]"
CSCc1nnc2n1-c1ccc(Cl)cc1C(c1ccccc1)=NC2,-54.3%,"23.1 µM [falling, partial curve]",
CC(=O)c1ccc(OCC(=O)N2CCCC(N3CCN(c4ccccc4C)CC3)C2)cc1 (stereo not drawn),,,"29.1 µM [falling, single point]"
Cc1cc(OCc2nn[nH]n2)c2c3c(c(=O)oc2c1)CCCC3,4.57%,,"20.6 µM [rising, single point]"

# Quoted from the listing:
# `O=c1[nH]c(=O)n(Cc2ccccc2)c(O)c1C=NCCCn1ccnc1` – cell number change: -1.63%
# `CC(C)c1ccccc1NC1=NCCCS1` – AC50 [2]: 0.206 µM [rising, single point]
